From patent US8889378B2, “Cytochrome C synthesis inhibitors” (priority 2006, dated 2014)

Columns and labels:
[1] = system: system II cytochrome c biogenesis (H. pylori CcsBA); assay: Metalloprotoporphyrin IX addition, E. coli Δccm with pRGK348 (system II-chuA) and pRGK332; format: cell-based; conditions: fluorescence, c4 immunoblot
Description: (§1) Overnight cultures of an E. coli Δccm strain (or E. coli ΔccmΔhemA) harboring either pRGK333 (system I) or pRGK348 (system II-chuA), pRGK332 (cytochrome c4:6×His), and pHPEX2 (Varnado and Goodwin, 2004) were diluted into fresh LB broth (containing the appropriate antibiotics and 8 μM hemin for the E. coli ΔccmΔhemA strain) and incubated with aeration at 37° C. until the OD600 was approximately 0.5. […] Arabinose (0.2%) was added after one hour and incubation continued for an additional three hours. Cells were harvested and soluble protein was extracted using B-PER (Feissner et al., 2006). […] Prior to heme stain and c4 immunoblot, the nitrocellulose blots were screened for fluorescence on an LAS-1000plus Luminescent Image Analyzer CCD camera system (Fujifilm; Tokyo, Japan).
(§2) Heme stains were performed as described (Feissner et al., 2003) using SuperSignal Femto chemiluminescent substrate (Pierce). Heme stain quantitation used LOLITA II (Low Light Test Array; raytestUSA; Wilmington, N.C.) for standardization of light intensity detection on an LAS1000plus Luminescent Image Analyzer CCD camera system. […] Chemiluminescence from heme stains and Western blots were detected using an LAS-1000plus Luminescent Image Analyzer CCD camera system (Fujifilm). Protein concentrations were determined using the BCA assay (Pierce) using BSA as a standard. […]

[2] = system: system I cytochrome c biogenesis; assay: Metalloprotoporphyrin IX addition, E. coli Δccm with pRGK333 (system I), pRGK332 and pHPEX2; format: cell-based; conditions: fluorescence, c4 immunoblot
Description: as §1, §2

SMILES	incorporation into cytochrome c4:6×His by system II [1]	incorporation into cytochrome c4:6×His by system I [2]
C=CC1=C(C)c2cc3[n-]c(cc4[n-]c(cc5nc(cc1n2)C(C)=C5C=C)c(C)c4CCC(=O)O)c(CCC(=O)O)c3C.[Zn+2] [ZnPPIX, zinc (II) protoporphyrin IX]	not incorporated	not incorporated
C=Cc1c2[n-]c(c1C)/C=c1\[n-]/c(c(C)c1C=C)=C\c1[n-]c(c(CCC(=O)O)c1C)C=c1[n-]/c(c(C)c1CCC(=O)O)=C\2.[Sn+4] [SnPPIX, tin (IV) protoporphyrin IX]	not being incorporated	not being incorporated
